Laboratory results taken from PubChem BioAssay AID1347426 (Functional Genomics Laboratory (NCATS/FGL), 2020).
About 1,400 (4.5%) of roughly 31,000 sequences were called active.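 How the source made its calls: active means median seed-adjusted z-score above 1 or below -1; inactive means the rest.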 The list shows a part of the results.

test: Novel Modifiers of Survival Motor Neuron (SMN) Protein: Gene Identification via Genome-wide siRNA Screen; settings: HEK293T SMN2-luciferase reporter, siRNA knockdown, 72 h; actives lie on both sides;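 further: luminescence tracks full-length SMN protein made from the SMN2 reporter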
Method in brief: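 HEK293T cells stably expressing an SMN2 splicing/cDNA-luciferase reporter were reverse-transfected with a druggable-genome siRNA library and read by luminescence at 72 hours; hits defined by MAD score above 1.0 or below -1.0.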

Sequence	median seed-adjusted z-score
GCUCACAAGUGGUUACCUUTT against COL21A1	inactive: 0.296
GGACUUCUUUCUAAUGUAATT against SMAD9	inactive: -0.492
CCUCCACAAUAAAGACUUATT against PDE7B	inactive: 0.0616
CGUGGAAGGUGAGUAAUAATT against ZBTB40	inactive: 0.187
GAGUGUAUGACGAACGAAATT against SMC3	inactive: 0.507
GGACUUGCUCAAUUCAAGATT against MGAT5	inactive: 0.16
GGAACAACGGUGGAGAUUUTT against ITGB5	inactive: -0.00882
GAACUUCCGUCGUAGAUCATT against ZNF234	inactive: 0.0667
GGCCUAGAACUCUAUCAAATT against USP28	inactive: 0.275
GGAAGUAGCUAGUCAACUATT against RASGRP3	inactive: 0.0202
GAAACUCAGUUUAUGAGCATT against SPON1	inactive: 0.248
CGAGCAGAAUGUCUCCAGATT against SFRS17A	inactive: -0.389
CGCUGCGUCUAAAAUCAAATT against LILRA3	inactive: -0.548
GUGUAUCUCCCGAACAUAATT against RHOBTB1	inactive: -0.605
GGAGUGGUUUAAUAAUUAUTT against GINS1	inactive: -0.224
GAGCAUGGGUCAAAGCGAATT against TRPM6	inactive: -0.0375
UGCACAAUUUUGUACGGAATT against ARAF	inactive: 0.535
CUGCAUCAGUAAAUGCUAATT against HRB	inactive: 0.921
GCCUGUGAAUGUACAGAAATT against VEGFC	inactive: -0.41
CGCAUUUUCUCCGCAAAAATT against HSFX1	inactive: 0.0575
CGAGUACAUUUUCUUCCGATT against KCTD8	inactive: 0.0212
GGCCUAACAGUAUUCCUGATT against CRB2	inactive: 0

Sequence	median seed-adjusted z-score
GCACGAAUUUCAGCACCAATT against HOXD1	inactive: 0.144
GGUCAUCACUUGGACAACATT against CLASP2	inactive: 0.157
AGCCUGGAGUCGAAACUGATT against GPR56	inactive: -0.109
UAAGCUUCAUGAAUACAGATT against S100A11	inactive: 0.702
CCCAAAGACUAAAGAUUAUTT against ATP6V1E1	inactive: -0.312
CGCUGGUCAUCGGACAAUUTT against PSMC4	inactive: -0.361
GCUUCGUCAUGGUACCCUUTT against EDNRA	inactive: 0.133
GGUUAUACGAGGGACAAGUTT against PDXK	inactive: -0.247
GGAAAAGGAACGGAAUAAATT against MLN	inactive: -0.422
CGUUGGAUUUUAAGGAAUUTT against KCTD6	inactive: 0.124
GACUGAAAGUAGUCAAGCATT against SP100	inactive: -0.235
GUAUAGUCCUAGUAGCUAUTT against MYO5A	inactive: 0.00798
GGGUCAUACGAAUACCGAUTT against VIPR2	inactive: 0.706
GGACUACGGAGUUCGAGAATT against MGC29506	inactive: 0
GGUCAUUAUGAUAACUUAATT against ZNF443	inactive: 0.0544
CACUCUAUCUACUUGAUAATT against FUCA1	inactive: -0.94
GAAUUCAACUAUCGAGUAUTT against CD86	inactive: 0
GGGCAGCUGUGGAUCGAAUTT against COQ7	inactive: 0.159
CGGCUCAACUUGACGAUAATT against SNX13	inactive: 0.253
GAACAAGCAGUACUAAUGATT against TCF12	inactive: -0.16
AAAGGUGCCUGUUACCGAUTT against DUSP21	inactive: -0.0724
GACAUUAUUUCAAUAUGGATT against EIF4E2	inactive: 0.0495

Sequence	median seed-adjusted z-score
CUAUCACGGUCACUGAUUUTT against PCDHB6	inactive: 0
CCAACUCACUACUACAGCATT against ENPP2	inactive: -0.305
GUUUUACCGAGAGCAUGAATT against NME6	inactive: -0.304
CCCACUUUAUUAUGACCAATT against RXFP2	inactive: 0.511
GACGUAAACGUGUUCAAUATT against ANXA1	inactive: -0.114
AGGAGAAUUUUGACGUGAATT against APOD	inactive: -0.115
CCAUUCUGUUGUGAAGUAATT against INSL4	inactive: 0.399
GCUCAUAAAUGAGAAGCUATT against PCDHB16	inactive: -0.523
GAAUUCACCAUUCAAGUAATT against SCYL3	inactive: 0.665
GAAUCUGAGUGUUGCGUUATT against SLC17A5	inactive: -0.354
CACCCGCGCUCAUGAGAAATT against KLC2	inactive: 0.0706
CCACCGGAUUUGAGAGAUUTT against USP25	inactive: 0.0461
GGAUAAAGAUAUUACUCUUTT against KIF5B	inactive: 0.162
GACUGGGUGUAAAACCGAUTT against ANGEL1	inactive: -0.332
CGGCUGCUACAAUGCCUUUTT against RNF31	inactive: -0.687
GGCUUGUGCAGACAUAAGATT against OMA1	inactive: 0
GCAGAGGAUUCUUCAAGCATT against TCOF1	inactive: 0.819
GGAUCAAGACGUGAACGAUTT against CPSF6	active: -2.38
CACCUCCAAUCAUAGGAUATT against NPAS2	inactive: 0.222
GGCGAUUACUGCAAUCUUUTT against MFN1	inactive: 0.21
GCAUAGCUAUUCCUGUUGATT against TSC22D2	inactive: 0
GGCCGUGCAGUUAAAGAAATT against TTLL6	inactive: -0.661

Sequence	median seed-adjusted z-score
CAGGAAUCAUUAGGCAAUATT against PJA2	inactive: 0
CAAAUUACCUUAGACUUCATT against ZNF101	inactive: 0.336
GCCUAGCAUUGCAAAACGATT against PPP2R5A	inactive: 0.37
GAAGGAUGGGUGGACGUAATT against NALCN	inactive: -0.266
GCCUGGUUCCGCUACUUCATT against ALDH3B1	inactive: 0.148
GAGUAUUCUGAGUACAUGATT against ZFP42	inactive: -0.537
CACUCUUUAUGAGUCGGAATT against SEC23IP	inactive: -0.0226
CACUGGAGACUUUCGCUUUTT against ZNF813	inactive: 0.127
GCAACCUCAUUAUCCGCUATT against ITIH4	inactive: 0.64
GGCCUGACAUGCUAAUAGATT against XPO5	inactive: -0.031
CGUUCGACCUGAUCGCAAATT against ODZ2	inactive: -0.0233
CAACAUACUUGAAUCAAGATT against CPOX	inactive: -0.135
CUGAAUCUCUCUGACCAUUTT against SCRT2	inactive: 0.404
GGCUCAAGUUAAAAGUGGATT against TGFB1	inactive: 0
GGCUAGAGCUUGAUAAUAATT against RNF2	inactive: 0.354
GGGUAUGAAUAUCUCUAUATT against IL23R	inactive: 0.512
GGAUCCUUACUUCUUGUCATT against COQ2	inactive: -0.0121
GAAAGAGAGAAGUACCGAATT against SENP2	inactive: 0
GCCCUUUAUUCAACGGGAATT against LIPH	inactive: 0.0437
AGACCGUGAUGGACAUCGATT against DECR2	inactive: 0
GGGUUCCAGUAACCAGUGATT against RPP21	active: -1.09
GGAGGAAAAUUUGACAUUATT against P2RX7	inactive: -0.527

Sequence	median seed-adjusted z-score
GGAUAAUGAAUUCAAGACATT against CYBB	inactive: 0.0487
GCGUGGAAAUUGUACCCGUTT against MBNL3	inactive: -0.189
GUGCAUAAGUGUUAGGGAATT against SLC17A2	inactive: 0.141
GGAUCGGUAUGUAGCAAUATT against HTR2C	inactive: -0.115
GCUCUUUAAGGAUGGGAAATT against PTGS1	inactive: 0.0458
GCACAGUAACGAUGACGAUTT against EIF4B	inactive: -0.374
GAAGCUUCCAGGAUAAAAATT against TNFRSF10D	inactive: 0.0234
CGUGGGCUCCAUUGAGACATT against NKIRAS2	inactive: 0.111
CUAUGAGUCAUAUAGGUAUTT against IFT88	inactive: 0.189
GAGGCGCUCUCUGAGGAAATT against GUK1	inactive: -0.339
GCGAUUCUCUGUGACCACUTT against CYP2B6	inactive: 0.454
GAACGGUCAAGAAAGAGUATT against DNAJB6	inactive: -0.251
AGGUACCGAUUUCUGCUAATT against HOXB8	inactive: 0.133
GACUUGACCCUGGAUGACATT against SERTAD2	inactive: 0.43
GGAUAAUACAGUUCGAUUATT against TAF5	inactive: -0.192
CCAUCUCAGGAGUUAGCUATT against ZNF281	active: 1.19
CAUGGAAUCUUAUGAACUUTT against MGP	inactive: -0.0854
GGUUGCAACUCAUGAGAUUTT against MMP26	inactive: 0.0881
GACCCUUACAGGAUUGAAATT against CDC23	inactive: 0.0112
GCUCAGCUUAAGUCCCUGATT against DCTN1	inactive: 0.25

In another format: entries from further up
Sequence,median seed-adjusted z-score
GGCUAGAGCUUGAUAAUAATT against RNF2,inactive: 0.354
GGGUAUGAAUAUCUCUAUATT against IL23R,inactive: 0.512
GGAUCCUUACUUCUUGUCATT against COQ2,inactive: -0.0121
GAAAGAGAGAAGUACCGAATT against SENP2,inactive: 0
GCCCUUUAUUCAACGGGAATT against LIPH,inactive: 0.0437
AGACCGUGAUGGACAUCGATT against DECR2,inactive: 0
GGGUUCCAGUAACCAGUGATT against RPP21,active: -1.09
GGAGGAAAAUUUGACAUUATT against P2RX7,inactive: -0.527
GGAUAAUGAAUUCAAGACATT against CYBB,inactive: 0.0487
GCGUGGAAAUUGUACCCGUTT against MBNL3,inactive: -0.189
GUGCAUAAGUGUUAGGGAATT against SLC17A2,inactive: 0.141
GGAUCGGUAUGUAGCAAUATT against HTR2C,inactive: -0.115
GCUCUUUAAGGAUGGGAAATT against PTGS1,inactive: 0.0458
GCACAGUAACGAUGACGAUTT against EIF4B,inactive: -0.374
GAAGCUUCCAGGAUAAAAATT against TNFRSF10D,inactive: 0.0234
CGUGGGCUCCAUUGAGACATT against NKIRAS2,inactive: 0.111
CUAUGAGUCAUAUAGGUAUTT against IFT88,inactive: 0.189
GAGGCGCUCUCUGAGGAAATT against GUK1,inactive: -0.339
GCGAUUCUCUGUGACCACUTT against CYP2B6,inactive: 0.454
GAACGGUCAAGAAAGAGUATT against DNAJB6,inactive: -0.251
AGGUACCGAUUUCUGCUAATT against HOXB8,inactive: 0.133
GACUUGACCCUGGAUGACATT against SERTAD2,inactive: 0.43
GGAUAAUACAGUUCGAUUATT against TAF5,inactive: -0.192
CCAUCUCAGGAGUUAGCUATT against ZNF281,active: 1.19
CAUGGAAUCUUAUGAACUUTT against MGP,inactive: -0.0854
